# Laboratory results as given in PubChem BioAssay AID540276 (National Center for Advancing Translational Sciences (NCATS), 2011).
# Where “and” joins values, the source holds several entries; their conditions need not be identical. Equal values may be shown once. Hit rate of the full screen: of about 300,000 compounds, about 5,400 (1.8%) were called active. This list was built around the results that the source calls inconclusive (neither active nor inactive); the mix of calls is not that of the screen. Calls come from the whole dose curve; tested in HEK293 cells. Potencies beside an inconclusive call are fits to weak or partial responses and may not hold up.
# Test: qHTS for inhibitors of binding or entry into cells for Marburg Virus
# Settings: Marburg virus pseudotyped entry inhibition, cell reporter; series mostly up to 37.8 µM
# Potency is the fitted concentration of half-maximal effect.
row,SMILES,Potency
1,C=CCOc1ccccc1CNc1ccccc1C,"inconclusive: 1.41 µM [activator, partial curve, poor fit]"
2,CCC(C)(C)NC(=O)c1ccc2c(c1)S(=O)(=O)c1ccccc1C2=O,"inconclusive: 0.891 µM [inhibitor, full curve, poor fit]"
3,COc1ccc(C(=O)OCCCN(C)C)cc1OC,inactive
4,CCc1ccc(OCc2nnc(SCC(=O)NC3CCCCC3)o2)cc1,inactive
5,CC(Cc1ccccn1)NC(=O)c1ccc(OC2CCN(CCc3ccccc3)CC2)cc1 (stereo not drawn),"inconclusive: 7.94 µM [inhibitor, partial curve]"
6,O=C(c1cccs1)N1CCN(S(=O)(=O)N2CCCCC2)CC1,"inconclusive: 5.62 µM [activator, full curve, poor fit]"
7,O=C(NNc1ccc([N+](=O)[O-])cc1)C12CC3CC(CC(C3)C1)C2,"inconclusive: 29.1 µM [inhibitor, single point]"
8,CCOc1ccccc1NC(=O)Nc1ccccn1,"inconclusive: 3.16 µM [activator, single point]"
9,COc1ccccc1CNC(=S)NC1CCCCC1,"inconclusive: 8.91 µM [inhibitor, partial curve, poor fit]"
10,CCOC(=O)C1(CCc2ccccc2)CCN(Cc2csc(C(C)=O)c2)CC1,"inconclusive: 31.6 µM [inhibitor, single point]"
11,Cc1ccc(OCCC(=O)Nc2ccc(F)c(F)c2)cc1,"inconclusive: 29.1 µM [activator, partial curve, poor fit]"
12,CC1CCCN(CCCNC(=O)c2ccc3c(c2)N(Cc2ccccc2F)C(=O)c2ccccc2S3(=O)=O)C1 (stereo not drawn),"inconclusive: 35.5 µM [inhibitor, single point]"
13,NC(N)=NOCC[C@H](N)C(=O)O,"inconclusive: 6.51 µM [activator, single point] and inconclusive: 5.62 µM [inhibitor, single point]"
14,O=S(=O)(c1ccc(SCCOc2ccc(Br)cc2)nc1)N1CCCC1,"inconclusive: 35.5 µM [inhibitor, partial curve, poor fit]"
15,CN1C(=O)CC(N2CCN(c3ccc(Cl)cc3)CC2)C1=O (stereo not drawn),inactive
16,CCCNC(=O)c1c(N)n(-c2ccc3c(c2)OCO3)c2nc3ccccc3nc12,inactive
17,O=C(OCc1ccccc1)N1CCOCCOCCN(C(=O)OCc2ccccc2)CCOCCOCC1,"inconclusive: 25.9 µM [inhibitor, single point]"
18,COc1cc(C(=O)Oc2c(Sc3ccccc3)c(C)nn2-c2ccccc2)cc(OC)c1OC,"inconclusive: 17.8 µM [activator, partial curve, poor fit]"

# Rewritten with bars between the fields: entries from further up
row | SMILES | Potency
6 | O=C(c1cccs1)N1CCN(S(=O)(=O)N2CCCCC2)CC1 | inconclusive: 5.62 µM [activator, full curve, poor fit]
7 | O=C(NNc1ccc([N+](=O)[O-])cc1)C12CC3CC(CC(C3)C1)C2 | inconclusive: 29.1 µM [inhibitor, single point]
8 | CCOc1ccccc1NC(=O)Nc1ccccn1 | inconclusive: 3.16 µM [activator, single point]
9 | COc1ccccc1CNC(=S)NC1CCCCC1 | inconclusive: 8.91 µM [inhibitor, partial curve, poor fit]
